PubChem BioAssay AID1259405 – NCATS, 2018
In all, the deposit lists about 50,000 reagents; this is an unselected part. In the full data, about 4,000 (8%) were called active. 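Mouse siRNA library applied to hamster cells; one well for each siRNA.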 Unmarked entries are inactive. The numbers tell different reagents against one gene apart.

- Purpose: 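Silenced genes that increase secreted GFP made by CHO cells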 (primary screen)
- System: Chinese hamster CHO-K1 ovary cells with stable secreted eGFP expression
- Reagent: single siRNA against mouse genes, 0.8 pmol siRNA per well (2 µl of 400 nM stock)
- Duration: 3 days
- Measurement: 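Per-well intracellular GFP measured by laser scanning cytometry, plus viability from ATP luminescence, each relative to plate median of non-targeting control wells, in %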
- Scale: GFP, % of control: higher = more GFP per well, higher productivity; viability (ATP), % of control: higher = more viable cells (more ATP)
- Call rule: 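a knock-down is called active if GFP reaches 120% or more of non-targeting control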

GFP, % of control	viability (ATP), % of control	gene symbol	siRNA no.
63.9	69.6	Timm50	1
71.2	81.5	Timm50	2
61.8	54.3	Timm50	3
85.4	98.4	Ssu2	1
67.4	40.3	Ssu2	2
97	99.8	Ssu2	3
111	88	H2ac8	1
96.1	96.2	H2ac8	2
62.8	72.3	H2ac8	3
34.9	18.1	Sipa1	1
82.5	72.5	Sipa1	2
23.8	38.8	Sipa1	3
106	77.9	Apoc2	1
71.9	67.2	Apoc2	2
88.8	53.3	Apoc2	3
56.1	64	Eif2ak2	1
177 (active)	154	Hnf4aos	1
75	79.8	Hnf4aos	2
104	67.2	Hnf4aos	3
79.5	85	Ube2dnl1	1
94.3	97.8	Ube2dnl1	2
72.5	77.7	Ube2dnl1	3
55.6	97.6	Tmem11	1
80.4	77.7	Tmem11	2
59.6	67.3	Tmem72	1
86.6	79.9	Tmem72	2
121 (active)	122	Tmem72	3
43.3	39	Or2a56	1
105	77.9	Or2a56	2
67.9	65.2	Or2a56	3
91.4	81.7	Kif17	1
83.1	83.5	Kif17	2
66.4	90.3	Smyd2	1
90.5	116	Smyd2	2

3 entries from above, arranged by “GFP, % of control”, descending:
GFP, % of control	viability (ATP), % of control	gene symbol	siRNA no.
94.3	97.8	Ube2dnl1	2
79.5	85	Ube2dnl1	1
72.5	77.7	Ube2dnl1	3
